Reference: US4186136A, “Novel benzothienyl amino (propyl and butyl) ketones, a method of preparation thereof and their application to therapeutics” (priority 1975, dated 1980)
At least one read-out could not be matched to a standard name with certainty.

test system: rat's isolated duodenum; experiment: Spasmolytic activity on isolated duodenum contracted by barium chloride (Magnus); conditions: barium chloride contraction, Tyrode, 38° C.
Method: The spasmolytic activity was studied on a rat's isolated duodenum maintained in a survival medium of an aerated Tyrode solution heated to 38° C. according to the technique of Magnus (Magnus R.-Archivs ges. Physiol., 1905, 180, 1-71).
The contracting agent used was barium chloride, the reference antogonist agent being papaverine hydrochloride (R). The average activity of the compounds of formula I (X) in comparison with that of the reference agent was expressed by calculating the ratio of the 50 efficient doses (ED 50) determined graphically on logarithmic paper: [formula]
For example: a substance having a relative activity expressed by the FIG. 2 presents an activity equal to twice that of papaverine hydrochloride.

First: CCN(CC)CCCC(=O)c1csc2ccccc12 [Compound 9]
Second: O=C(CCCN1CCCCCC1)c1csc2ccccc12 [Compound 16]
The “Spasmolytic activity ED 50 (X)” value of the first is 3-fold lower: 0.5 µg/mL for the first, 1.5 µg/mL for the second.

For `CCN(CC)CCCC(=O)c1csc2ccccc12` [Compound 10], the “Spasmolytic activity ED 50 (X)” value was 3.8 µg/mL.
